Experimental data reported in patent US20240075140A1, “ENGINEERED NK CELLS AND METHODS OF TREATING CANCER” (American Gene Technologies Intemational Inc, priority 2021, published 2024).
“Also recorded” adds a separate entry of the source. Read-outs that look alike come from different tables or passages of the source. For at least one compound, name, drawing or mass did not settle the structure.

Legend:
[1] = tested on: Daudi cells; assay: intracellular TNFα expression assay (flow cytometry), Daudi targets; assay type: cell-based; settings: effector NK92γδTCR-5 subline
[2] = tested on: Huh7 cells; assay: calcein-acetoxymethyl fluorometric cytotoxicity assay, Huh7 targets; assay type: cell-based; settings: AGT401 transduction combined with 1 μM zoledronic acid, or 10 μM zoledronic acid
[3] = tested on: TU167 cells; assay: calcein-acetoxymethyl fluorometric cytotoxicity assay, TU167 targets; assay type: cell-based; settings: AGT401 transduction combined with 1 μM zoledronic acid, or 10 μM zoledronic acid
[4] = tested on: Daudi cells; assay: CD107a degranulation assay (flow cytometry), Daudi targets; assay type: cell-based; settings: 10 μM; effectors NK92γδTCR-5 subline or NK92γδTCR cloned cell lines
[5] = tested on: multiple cancer cell lines; assay: CD107a response of S76 to multiple cancer cell lines with or without zoledronic acid; assay type: cell-based; settings: 1 μM
[6] = tested on: C8166 cells; assay: calcein-acetoxymethyl fluorometric cytotoxicity assay, C8166 targets; assay type: cell-based, human; settings: 1 μM; effectors NK92γδTCR-S76 or NK92γδTCR-5
[7] = tested on: Daudi cells; assay type: cell-based; settings: 10 μM; effector NK92γδTCR-5 subline
[8] = tested on: A549 cells
[9] = tested on: PC3 (UMB) cells; assay: calcein-acetoxymethyl fluorometric cytotoxicity assay, PC3 targets; assay type: cell-based; settings: 1 μM; effector NK92γδTCR-576
[10] = tested on: SNU447 cells; assay: calcein-acetoxymethyl fluorometric cytotoxicity assay, SNU447 targets; assay type: cell-based; settings: 1 μM; effectors NK92γδTCR-576 or NK92γδTCR-5

O=P(O)(O)C(O)(Cn1ccnc1)P(=O)(O)O [Zoledronic acid, zoledronic acid]
effect of zoledronic acid treatment on TNFα response to Daudi cells [1]: further enhanced cell response | effect on killing of Huh7 by NK92γδTCR-5 [2]: significantly enhanced cell killing | effect on killing of TU167 by NK92γδTCR-5 subline [3]: significantly enhanced cell killing | effect of zoledronic acid treatment on CD107a response to Daudi cells [4]: further enhanced the response; also recorded: further enhanced cell response | effect of zoledronic acid on S76 CD107a response ([5]; Daudi or C8166 cells): little effect | effect of low dose zoledronic acid on S76 CD107a response ([5]; tested cell lines in general): usually higher | effect of zoledronic acid on killing of C8166 cells [6]: did not change cell killing | effect of zoledronic acid treatment on killing of Daudi cells [7]: further enhanced cell killing | effect of zoledronic acid on killing of A549 cells ([8]; 1 μM, effectors NK92γδTCR-576 or NK92γδTCR-5): enhanced cell killing | effect of zoledronic acid on killing of A549 cells ([8]; 10 μM dose, effector NK92γδTCR-576, subsequent experiments (not shown)): substantially increased A549 cell killing | effect of zoledronic acid on killing of PC3 cells [9]: significantly enhanced cell killing | effect of zoledronic acid on killing of SNU447 cells [10]: significantly enhanced cell killing
